Percent effect of library compounds

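Whole-parasite assay of Trypanosoma brucei over 72 hours; the read-out is not stated. Compounds at 30 µM. Direction is inferred from retests: higher values go with stronger inhibition. Values scatter widely below zero; nearly all retest evidence comes from the higher of the two concentrations used. Size under these conditions: about 64,000 compounds, about 940 of them at 50% or above in at least one test.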

Values are the deposited “Percent Effect”, in %.
The record does not define 0% and 100%; most values in the screen are far below 50% and negative numbers occur (in some assays of this library far below -100).
This is an unselected part of the compounds tested.

| # | SMILES | effect |
|---|---|---|
| 1 | `Cn1c(=O)c2c(c3ccccc31)OC(C)(C)CC2` | -32.69% |
| 2 | `CN(Cc1cccnc1)CC1CNCc2nccn2C1` (stereo not drawn) | -5.263% |
| 3 | `NCC1CCCCN1Cc1cc(O)c2cccc(F)c2n1` (stereo not drawn) | 38.88% |
| 4 | `Cc1ccc(Oc2nccnc2C2CCN(C(=O)C(C)(C)N)CC2)cc1` | 44.74% |
| 5 | `O=C(O)C(F)(F)F.[H][C@@]12COC[C@]1(COC)CN(Cc1ccc3c(c1)OCO3)C2` | -0.4177% |
| 6 | `COc1ccccc1OCC(=O)NS(=O)(=O)c1cccnc1` | -3.169% |
| 7 | `CC(C)OC(=O)N1CCCCC1CCn1cccn1` (stereo not drawn) | -8.873% |
| 8 | `COc1ccccc1-c1ccc(NCc2cn3c(n2)SCC3)nn1` | -12.97% |
| 9 | `COc1ccc(S(=O)(=O)N2CCC(O)(CN(C)C)C2)cc1` (stereo not drawn) | -3.367% |
| 10 | `Cc1nnc(Nc2cccc(C3CCCN(Cc4ncc[nH]4)C3)n2)s1` (stereo not drawn) | -21.89% |
| 11 | `CNc1cc(CCNC(=O)C2CCCC2)nc(-c2ccccn2)n1` | 28.05% |
| 12 | `Cc1nccn1CCC1CCCCN1Cc1cnc(N(C)C)nc1` (stereo not drawn) | -15.48% |
| 13 | `CN(C)CC1COCCN1C(=O)C1(c2cccs2)CCCC1.O=CO` (stereo not drawn) | 99.83% |
| 14 | `CN(C)CCN1CCOCC2(CCCN(C(=O)Cc3ccccc3)C2)C1.O=C(O)C(F)(F)F.O=C(O)C(F)(F)F` (stereo not drawn) | -11.58% |
| 15 | `COc1ccc(CCN(C)C(C(=O)O)c2ccc(F)c(C)c2)cc1OC` (stereo not drawn) | -35.02% |
| 16 | `Cc1ncc2c(n1)CN(Cc1nc(-c3ccsc3)no1)CC2` | -15.69% |
| 17 | `COc1cccc(CNCC2CN(C)CCO2)c1` (stereo not drawn) | -3.42% |
| 18 | `COc1ccccc1CCC(=O)N1C[C@H](c2ccccc2)[C@@H](N)C1` | -1.309% |
| 19 | `CC(=O)N1CCCN(C(C(=O)O)c2ccc(C)cc2C)CC1` (stereo not drawn) | 5.569% |
| 20 | `CCOC(=O)[C@H]1[C@@H](O)C(=O)N(C)C12CCN(C(=O)OC)CC2` | -7.039% |
| 21 | `COc1cncc(N2CCN(Cc3cccn3C)CC2)n1` | 9.221% |
| 22 | `Cc1cc(C)n(CC2CCCN2CC(=O)Nc2nncs2)n1` (stereo not drawn) | -18.99% |
| 23 | `CSC(C)(C)CNC(=O)NC1CCN(CC=C(C)C)CC1` | -42.25% |
| 24 | `Cc1cnn(CC(C)NCC(=O)NCCc2cccs2)c1` (stereo not drawn) | -60.21% |
| 25 | `COCCN1CCN(Cc2cnc(C(C)C)nc2)CC1` | -4.218% |
| 26 | `CNC(=O)C1(c2cnccn2)CCCN1C(=O)c1ccccc1` (stereo not drawn) | -28.03% |
| 27 | `COc1cccc(CN(C)C(=O)CCC(=O)c2ccc(Cl)cc2)c1OC` | -44.68% |
| 28 | `Cc1c(NC(C)C(C)C)cccc1C(=O)NCc1nccn1C` (stereo not drawn) | 14.58% |
| 29 | `COCC(C)(C#N)NC(=O)COc1ccccc1` (stereo not drawn) | -15.36% |
| 30 | `COCCOc1ccc(C(=O)N[C@@H]2CNCCC[C@H]2O)cc1` | -11.96% |
| 31 | `Cc1cc2nc(C(C)C)cc(N3CCC(N(C)C)C3)n2n1` (stereo not drawn) | 25.44% |
| 32 | `CCC(=O)NC(c1ccc(C)cc1)c1cccc(S(C)(=O)=O)c1` (stereo not drawn) | -18.65% |
| 33 | `COc1ccccc1N1CCN(C(=O)CCn2ccnc2C)CC1(C)C` | -19.25% |
| 34 | `CC(C)Cc1nc(C[S+]([O-])CC(=O)NCc2ccccc2)no1` (stereo not drawn) | -19.44% |
| 35 | `CN(C)c1cccc(C2CCCN2c2nc3c(cnn3C)c(=O)[nH]2)c1` (stereo not drawn) | -60.63% |
| 36 | `[H][C@]12CC[C@@]3(N=C(CC)NC3=O)[C@@]1([H])CN(C(=O)NCc1ccccc1C)C2` | -43.83% |
| 37 | `COc1cccc(CSCC2=Nc3ccccc3S(=O)(=O)N2)c1` | 5.816% |
| 38 | `NC(=O)C1CN(C(=O)NCC2(c3ccc(F)cc3)CCC2)CCO1` (stereo not drawn) | -39.82% |
| 39 | `Cc1cnc(N2CCCC3(CCOCC3)C2)nc1` | -11.56% |
| 40 | `CC(=O)N1CCC1c1nc(-c2ccc(C)s2)no1` (stereo not drawn) | -8.128% |
| 41 | `COc1cc(CNC(=O)N2CCCC2c2cc(C)no2)ccn1` (stereo not drawn) | -11.53% |
| 42 | `CC(NC(=O)N1CCC(CO)CC1)c1csc2ccccc12` (stereo not drawn) | 11.36% |
| 43 | `O=C(COc1ccc2c(c1)CCC2)N1CCOCC1c1ncon1` (stereo not drawn) | -36.67% |
| 44 | `CC(C)c1nnc(CN2CCc3ccc(S(N)(=O)=O)cc32)o1` | -3.272% |
| 45 | `Cc1csc2nc3n(c(=O)c12)CCN(C(=O)c1ccncc1)CC3` | 1.6% |
| 46 | `COc1ccccc1-n1nc(-c2ccco2)n(CC(=O)NC2CC2)c1=O` | -17.44% |

The first 4 entries again:

| SMILES | effect |
|---|---|
| `Cn1c(=O)c2c(c3ccccc31)OC(C)(C)CC2` | -32.69% |
| `CN(Cc1cccnc1)CC1CNCc2nccn2C1` (stereo not drawn) | -5.263% |
| `NCC1CCCCN1Cc1cc(O)c2cccc(F)c2n1` (stereo not drawn) | 38.88% |
| `Cc1ccc(Oc2nccnc2C2CCN(C(=O)C(C)(C)N)CC2)cc1` | 44.74% |

Data taken from ChEMBL document CHEMBL3988442, “University of Dundee, Small-Polar-MMV Screening Library” (2021).